PubChem BioAssay AID1259254 – NCATS, 2017
Assay: 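Gene knock-downs that lead to re-replication, shown by excess G2 DNA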 (primary screen). Cell system: human HCT116 colorectal cancer cells. Reagent: single siRNA against human genes. Duration: 3 days. Detection: 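Imaged Hoechst DNA stain sorts each cell into a cycle phase by DNA amount; per plate, G2 fraction set to 0% for non-targeting and 100% for GMNN siRNA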. Direction: G2 robust z-score: higher = more G2 cells, more excess DNA replication. Call rule: 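Active siRNAs have a G2 robust z of 5 or more median absolute deviations over the median, which in these data means about 38% or higher of GMNN control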.
The deposit covers about 59,000 reagents; this is a random part of them. Of all reagents, about 1,550 (2.6%) are marked active. 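G2 share is only a proxy for re-replication; each gene was hit by three separate siRNAs, and active genes were retested.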 Entries without a mark were called inactive. Not all columns of the deposit are shown. Not given: the amount of reagent.

| Gene | PubChem SID | G2 robust z-score |
| --- | --- | --- |
| HMX1 (H6 family homeobox 1) | SID160731068 | -1.03 |
| HMX1 (H6 family homeobox 1) | SID160775082 | 1.2 |
| HMX1 (H6 family homeobox 1) | SID160775083 | 2.3 |
| IL17RE (interleukin 17 receptor E) | SID160757124 | -1.29 |
| IL17RE (interleukin 17 receptor E) | SID160757125 | -0.0162 |
| IL17RE (interleukin 17 receptor E) | SID160757126 | -0.725 |
| GCNT1 (glucosaminyl (N-acetyl) transferase 1) | SID160770111 | 1.23 |
| GCNT1 (glucosaminyl (N-acetyl) transferase 1) | SID160770122 | 2.69 |
| GCNT1 (glucosaminyl (N-acetyl) transferase 1) | SID160770131 | 0.696 |
| HPCAL4 (hippocalcin like 4) | SID160731369 | -0.307 |
| HPCAL4 (hippocalcin like 4) | SID160740817 | 0.303 |
| HPCAL4 (hippocalcin like 4) | SID160740818 | -1.07 |
| M1AP (meiosis 1 associated protein) | SID160757023 | -0.142 |
| M1AP (meiosis 1 associated protein) | SID160757024 | 1.99 |
| M1AP (meiosis 1 associated protein) | SID160757025 | -0.541 |
| NME1 (NME/NM23 nucleoside diphosphate kinase 1) | SID160731294 | -0.457 |
| NME1 (NME/NM23 nucleoside diphosphate kinase 1) | SID160778104 | 5.81 (active) |
| NME1 (NME/NM23 nucleoside diphosphate kinase 1) | SID160778105 | -0.715 |
| DLG2 (discs large MAGUK scaffold protein 2) | SID160754577 | 1.28 |
| DLG2 (discs large MAGUK scaffold protein 2) | SID160754587 | -0.308 |
| DLG2 (discs large MAGUK scaffold protein 2) | SID160754597 | 3.76 |
| MTARC2 (mitochondrial amidoxime reducing component 2) | SID160742699 | -0.0043 |
| MTARC2 (mitochondrial amidoxime reducing component 2) | SID160742700 | 0.238 |
| MTARC2 (mitochondrial amidoxime reducing component 2) | SID160742701 | 0.915 |
| ATP5PO (ATP synthase peripheral stalk subunit OSCP) | SID160722320 | 0.2 |
| ATP5PO (ATP synthase peripheral stalk subunit OSCP) | SID160722331 | 0.199 |
| ATP5PO (ATP synthase peripheral stalk subunit OSCP) | SID160731443 | -0.715 |
| PKDREJ (polycystin family receptor for egg jelly) | SID160728213 | 3.71 |
| PKDREJ (polycystin family receptor for egg jelly) | SID160728214 | -0.146 |
| PKDREJ (polycystin family receptor for egg jelly) | SID160728215 | -1.03 |
| NTF3 (neurotrophin 3) | SID160778257 | 0.849 |
| NTF3 (neurotrophin 3) | SID160778258 | -0.446 |
| NTF3 (neurotrophin 3) | SID160778259 | 0.0622 |
| SLC30A6 | SID160744062 | -0.0615 |
| SLC30A6 | SID160744063 | -0.308 |
| SLC30A6 | SID160744064 | -0.272 |
| YLPM1 (YLP motif containing 1) | SID160744966 | -0.69 |
| YLPM1 (YLP motif containing 1) | SID160744967 | -1.08 |
| YLPM1 (YLP motif containing 1) | SID160744968 | -0.584 |
| AGPS (alkylglycerone phosphate synthase) | SID160720283 | -0.72 |
| AGPS (alkylglycerone phosphate synthase) | SID160720284 | -1.08 |
| AGPS (alkylglycerone phosphate synthase) | SID160720286 | -1.23 |
| VSTM2B-DT (VSTM2B divergent transcript) | SID160732973 | -0.954 |
| VSTM2B-DT (VSTM2B divergent transcript) | SID160763307 | 0.0158 |
| VSTM2B-DT (VSTM2B divergent transcript) | SID160763308 | -0.318 |
| MTM1 (myotubularin 1) | SID160731251 | 3.29 |
| MTM1 (myotubularin 1) | SID160777538 | -1.08 |
| MTM1 (myotubularin 1) | SID160777539 | 2.14 |

Looked up above:
MTARC2 (mitochondrial amidoxime reducing component 2) [SID160742699], G2 robust z-score = -0.0043
Under “G2 robust z-score”, M1AP (meiosis 1 associated protein) [SID160757023] shows -0.142
MTM1 (myotubularin 1) [SID160777539], G2 robust z-score: 2.14
Result for YLPM1 (YLP motif containing 1) [SID160744966] under “G2 robust z-score”: -0.69
Under “G2 robust z-score”, MTARC2 (mitochondrial amidoxime reducing component 2) [SID160742700] shows 0.238
Result of NTF3 (neurotrophin 3) [SID160778257] under “G2 robust z-score”: 0.849
